Results: patent US20240173439A1, “FLUORINE-CONTAINING COMPOUND AND CONTRAST MEDIUM” (TDK CORPORATION, priority 2021, published 2024)

Assay: T1-weighted 19F-MRI phantom images in deuterated chloroform solution
Details: 5 mM and 10 mM deuterated chloroform solutions; TR=1500 ms, TE=12 ms

CC1(C)CC(OCCCCOC(C(F)(F)F)(C(F)(F)F)C(F)(F)F)CC(C)(C)N1[O] [Compound 11, 4-(4-((1,1,1,3,3,3-hexafluoro-2-(trifluoromethyl)propane-2-yl)oxy)butoxy)-2,2,6,6-tetra methylpiperidine-1-oxyl]
Brightness of T1-weighted 19F-MRI image versus Comparative Example 1 (compound A1): brighter
